Measured data: PubChem BioAssay AID504786 (Drosophila RNAi Screening Center, 2011)

Assay: 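Fly genes required for HIF-dependent transcription when hypoxia is mimicked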 (primary screen)
Cells: Drosophila S2 cells with a stable HIF luciferase reporter
Reagent: long dsRNA against Drosophila genes, about 0.2 µg dsRNA per well of a 384-well plate
Timing: three days of knock-down, then 20 h of DFO before reading
Challenge: desferrioxamine (DFO) at 100 µM, an iron chelator that mimics hypoxia, for 20 h
Measurement: 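HIF reporter luminescence in cells given 100 µM DFO for 20 h, using the mouse ldh-a hypoxia-response element, scored as per-plate z-scores; higher means greater loss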
Scale: z-score: higher = stronger loss of HIF reporter signal
In all, the deposit lists about 21,000 reagents; below is a random part of those that have a named target and a result. 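Primary screen; positive scores mean lost reporter signal, so the sign may be inverted from the usual convention.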 A plus sign joins genes that one reagent is predicted to hit. Not all columns of the deposit are shown.

target gene | DRSC id | z-score, replicate 1 | z-score, replicate 2 | z-score, replicate 3
ohgt | DRSC15521 | -0.4 | 0 | –
CG13771 | DRSC02277 | -0.3 | -0.2 | –
ND-13A | DRSC03110 | -0.1 | -0.7 | –
CG12898 | DRSC06213 | -0.3 | -0.1 | –
CG13893 | DRSC08363 | -0.4 | -0.1 | –
CG30470 (retired record) | DRSC05553 | -0.1 | -0.3 | –
CG30470 (retired record) | DRSC06260 | -0.1 | -0.1 | –
CG30470 (retired record) | DRSC06261 | -0.4 | -0.4 | –
CG30470 (retired record) | DRSC06777 | -0.3 | -0.6 | –
ghi | DRSC08985 | -0.4 | 0.6 | –
CG42512 + CG32573 | DRSC19532 | -0.3 | -0.9 | –
CG42512 + CG32573 | DRSC19906 | -0.2 | 0.6 | –
wdn | DRSC17095 | 0.1 | 0.8 | –
Vtld + CG42529 | DRSC10102 | -0.3 | -0.4 | –
nSMase | DRSC08237 | -0.4 | -1.1 | –
Pc | DRSC11873 | -0.4 | 0.1 | –
rho-4 | DRSC19761 | -0.3 | -0.4 | –
rho-4 | DRSC19762 | -0.2 | 0.6 | –
CG14630 | DRSC18166 | -0.3 | -0.5 | –
CG14630 | DRSC18653 | -0.3 | -0.1 | –
CG10321 | DRSC04061 | -0.5 | -0.5 | –
Grip163 | DRSC10538 | -0.1 | -0.3 | –
phr6-4 | DRSC03589 | -0.3 | 0 | –
sick | DRSC02090 | -0.5 | -0.8 | –
sick | DRSC02301 | -0.4 | -0.1 | –
sick | DRSC02302 | -0.3 | -0.1 | –
sick | DRSC02303 | -0.3 | 0.7 | –
sick | DRSC02306 | -0.1 | 0.3 | –
mEFTu1 | DRSC06959 | 0.1 | -0.1 | –
Sdr | DRSC15517 | -0.3 | -0.3 | –
rut | DRSC20367 | 2.1 | 4.4 | –
CG15140 | DRSC02440 | -0.3 | -0.4 | –
ctrip | DRSC12242 | -0.5 | -0.9 | –
ctrip | DRSC12287 | -0.5 | -0.9 | –
COX7C | DRSC06831 | 0.6 | 1.1 | 0.5
TTLL5 | DRSC14181 | -0.2 | 0 | –
CG6236 | DRSC15999 | -0.4 | -0.4 | –
CG15022 | DRSC08476 | -0.2 | -0.8 | –
CG3961 | DRSC10390 | -0.4 | -0.3 | –
CG3961 | DRSC10391 | 0.1 | -0.5 | –
Mhcl | DRSC13130 | 1.1 | 0.3 | –
Mhcl | DRSC14216 | -0.3 | -0.5 | –
Mhcl | DRSC16753 | -0.2 | -0.5 | –
SCAP | DRSC04869 | -0.1 | -0.5 | –
SCAP | DRSC04907 | -0.3 | -0.5 | –
Cda5 | DRSC00003 | -0.2 | 0 | 0.1
Cda5 | DRSC00529 | -0.2 | -0.1 | –
Cda5 | DRSC00532 | -0.3 | -0.3 | –
Ance | DRSC01865 | -0.4 | -0.2 | –
Roc1a | DRSC18483 | 0.8 | 0.9 | –
atk | DRSC11418 | -0.2 | 0 | -0.4
atk | DRSC11769 | -0.2 | -0.2 | –
CG18731 | DRSC15377 | -0.4 | -0.5 | –
CG9855 | DRSC12344 | -0.3 | -0.4 | -0.2
Unr | DRSC10761 | -0.1 | 0.3 | –
CG3600 (retired record) | DRSC18599 | -0.3 | -0.5 | –
Nop60B | DRSC04627 | -0.1 | -0.3 | –
Crtp | DRSC04604 | -0.3 | -0.3 | –
Sod3 | DRSC07324 | -0.2 | -0.1 | –
Dh31 | DRSC02196 | -0.3 | -0.6 | –
Boh1 | DRSC14487 | -0.4 | -0.1 | –
TBC1d7 + mRpS24 | DRSC14611 | 0.4 | 0 | –
CG7140 | DRSC11799 | -0.3 | -0.4 | –
CG8289 | DRSC20101 | -0.3 | -0.5 | –
GstO3 | DRSC10710 | -0.3 | -0.6 | –
CG4872 | DRSC19921 | -0.4 | -0.9 | –
CG10466 | DRSC02060 | -0.4 | 0.3 | –
CG14963 | DRSC08422 | -0.3 | -0.5 | –
CG6931 | DRSC10750 | -0.2 | -0.6 | –
CG4714 | DRSC06883 | -0.3 | -0.9 | –
GstE12 | DRSC04047 | 0.3 | -0.1 | –
Gr64c | DRSC08445 | -0.3 | -0.4 | –
Pex1 | DRSC11358 | -0.3 | -0.2 | –
CG11357 | DRSC08183 | -0.3 | -0.5 | –
Sik3 | DRSC06505 | -0.6 | 0.6 | –
Sik3 | DRSC06771 | -0.2 | -0.8 | –
Trpm | DRSC06629 | -0.3 | -0.5 | –
CG43394 | DRSC01013 | -0.7 | -0.3 | –
Amy-p | DRSC06786 | -0.2 | -0.4 | –
CG6304 | DRSC02948 | -0.1 | 0.2 | –
CG17361 | DRSC10266 | 0.4 | 0.2 | –
Arp53D | DRSC05923 | -0.2 | 0 | –
CG5357 (retired record) | DRSC04497 | 0.5 | 0.7 | –
